These are raw signals, not scaled to a control.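 The top concentration was set near the MIC for antimicrobials, at 500 µM for most other compounds, and up to 1 mM for known inducer-like compounds. Deletion strains started from a tenfold smaller inoculum, and wells growing below 10% of the overall median were treated as non-growing.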
System: Escherichia coli BW25113
Assay: growth (OD600 area under curve, 8 h) (OD600 x h); higher = more growth
Description: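 E. coli BW25113 reporter strains (wild type, ΔmarA, ΔsoxS, Δrob, each carrying one of 8 lux reporter plasmids) were grown in 40 µl LB in 384-well plates at 37°C, 800 rpm, with each compound at 4 two-fold concentrations, in biological duplicates. Growth is the baseline-corrected OD600 area under the curve over 8 h (0-8 h WT, 1-9 h deletion strains).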

c1ccc(-c2ccccn2)nc1 [2-2-Bipyridyl]
growth
Details | reporter plasmid: EVC | reporter plasmid: acrABp | reporter plasmid: marRABp | reporter plasmid: micFp | reporter plasmid: ompFp | reporter plasmid: robp | reporter plasmid: soxSp | reporter plasmid: tolCp
9.8 µg/ml, genetic background: wild type | 2.28 | 2.6 | 2.58 | 2.95 | 2.49 | 2.5 | 2.62 | 2.8466
9.8 µg/ml, genetic background: ΔmarA | 2.61 | 3.33 | 2.6 | 2.52 | 2.81 | 2.7 | 2.24 | 2.43
9.8 µg/ml, genetic background: Δrob | 2.41 | 2.61 | 2.65 | 2.63 | 2.12 | 2.22 | 2.53 | 2.5
9.8 µg/ml, genetic background: ΔsoxS | 2.83 | 2.58 | 2.91 | 2.27 | 2.2 | 2.665 | 2.82 | 2.57
19.5 µg/ml, genetic background: wild type | 1.9 | 2.21 | 2.56 | 2.47 | 1.9 | 2.07 | 2.336 | 2.34
19.5 µg/ml, genetic background: ΔmarA | 2.06 | 2.82 | 2.39 | 2.02 | 2.41 | 2.37 | 1.89 | 1.96
19.5 µg/ml, genetic background: Δrob | 1.87 | 2.12 | 2.31 | 2.15 | 1.7 | 1.67 | 2.034 | 1.93
19.5 µg/ml, genetic background: ΔsoxS | 2.31 | 2.25 | 2.57 | 1.52 | 1.66 | 2.25 | 2.22 | 2.06
39 µg/ml, genetic background: wild type | 0.993 | 1.65 | 1.51 | 1.32 | 1.15 | 1.38 | 1.31 | 1.44
39 µg/ml, genetic background: ΔmarA | 1.3 | 1.77 | 1.6 | 1.32 | 1.52 | 1.97 | 1.43 | 1.35
39 µg/ml, genetic background: Δrob | 0.892 | 1.35 | 1.5 | 0.978 | 0.798 | 0.931 | 1.05 | 1.05
39 µg/ml, genetic background: ΔsoxS | 1.29 | 1.66 | 1.62 | 0.681 | 0.856 | 1.35 | 1.13 | 1.01
78.1 µg/ml, genetic background: wild type | 0.159 | 0.559 | 0.742 | 0.205 | 0.228 | 0.331 | 0.358 | 0.511
78.1 µg/ml, genetic background: ΔmarA | 0.301 | 0.77 | 0.317 | 0.164 | 0.403 | 0.443 | 0.219 | 0.0822
78.1 µg/ml, genetic background: Δrob | 0.216 | 0.341 | 0.362 | 0.207 | 0.16 | 0.102 | 0.185 | 0.166
78.1 µg/ml, genetic background: ΔsoxS | 0.149 | 0.121 | 0.379 | 0.0837 | 0.0976 | 0.138 | 0.0912 | 0.152

Nc1ccc(C(=O)O)c(O)c1 [4-Aminosalicylic acid]
growth
Details | reporter plasmid: EVC | reporter plasmid: acrABp | reporter plasmid: marRABp | reporter plasmid: micFp | reporter plasmid: ompFp | reporter plasmid: robp | reporter plasmid: soxSp | reporter plasmid: tolCp
19.1 µg/ml, genetic background: wild type | 2.14 | 3.02 | 2.96 | 2.65 | 2.68 | 3 | 2.51 | 2.48
19.1 µg/ml, genetic background: ΔmarA | 2.64 | 3.83 | 3.16 | 2.82 | 3.03 | 3.18 | 2.15 | 2.37
19.1 µg/ml, genetic background: Δrob | 2.48 | 2.85 | 2.896 | 2.57 | 2.23 | 2.31 | 2.17 | 2.37
19.1 µg/ml, genetic background: ΔsoxS | 2.53 | 2.71 | 3.05 | 2.19 | 2.56 | 3.16 | 2.75 | 2.45
38.3 µg/ml, genetic background: wild type | 2.08 | 3.05 | 3.04 | 2.75 | 2.77 | 2.86 | 2.52 | 2.53
38.3 µg/ml, genetic background: ΔmarA | 2.6 | 3.66 | 3.01 | 2.55 | 2.88 | 2.8 | 2.03 | 2.39
38.3 µg/ml, genetic background: Δrob | 2.41 | 2.765 | 2.85 | 2.5 | 2.19 | 2.39 | 2.1 | 2.22
38.3 µg/ml, genetic background: ΔsoxS | 2.62 | 2.67 | 3.1 | 2.33 | 2.72 | 2.84 | 2.74 | 2.54
76.6 µg/ml, genetic background: wild type | 1.9269 | 3.54 | 3.47 | 2.68 | 2.98 | 3.082 | 2.349 | 2.56
76.6 µg/ml, genetic background: ΔmarA | 2.96 | 4.74 | 4.2 | 2.88 | 3.45 | 4.27 | 2.41 | 2.79
76.6 µg/ml, genetic background: Δrob | 2.47 | 3.05 | 3.35 | 2.57 | 2.43 | 2.82 | 2.06 | 2.26
76.6 µg/ml, genetic background: ΔsoxS | 2.39 | 2.79 | 3.39 | 2.08 | 2.85 | 3.45 | 2.85 | 2.37
153.1 µg/ml, genetic background: wild type | 1.83 | 3.08 | 3.026 | 2.42 | 2.7 | 2.86 | 2.18 | 2.52
153.1 µg/ml, genetic background: ΔmarA | 3.21 | 4.21 | 3.71 | 2.8 | 3.08 | 4.17 | 2.33 | 2.79
153.1 µg/ml, genetic background: Δrob | 2.41 | 2.77 | 3.31 | 2.45 | 2.36 | 2.49 | 1.9 | 2.27
153.1 µg/ml, genetic background: ΔsoxS | 2.37 | 2.73 | 3 | 1.81 | 2.57 | 3.05 | 2.65 | 2.28

From the supplement of paper PMC12282887
